Measured values as given in the supplement of paper PMC5393889.
This is one part of the list.

The compounds below were run on Caenorhabditis elegans N2 (assay: aldicarb interaction hit call (worm growth perturbed in combination with 10 uM aldicarb in both replicates, no effect as single agent) (binary (1 = interacts)); higher = interacts with aldicarb (growth perturbed)). Conditions: first compound 1.5 µM; aldicarb concentration 10 µM; 6 days; 20 °C.
In the case of Fc1ccc(CN2CCCC3(CCN(CCCC(F)(F)F)C3)C2)cc1F (configuration not stated) [wact-338] + CNC(=O)O/N=C/C(C)(C)SC [aldicarb], the “aldicarb interaction hit call” value is reported as inactive: 0. In the case of Nc1ccc2oc(-c3ccc(Cl)cc3)nc2c1 [wact-395] + CNC(=O)O/N=C/C(C)(C)SC [aldicarb], the “aldicarb interaction hit call” value is reported as inactive: 0. In the case of Ic1ccc(OCCCN2CCNCC2)cc1.O=C(O)C(=O)O [wact-76] + CNC(=O)O/N=C/C(C)(C)SC [aldicarb], the “aldicarb interaction hit call” value is reported as inactive: 0. With CC(C)(C)c1ccc(-c2nc(-c3ccncc3)no2)cc1 [wact-8] + CNC(=O)O/N=C/C(C)(C)SC [aldicarb] the “aldicarb interaction hit call” value was inactive: 0. For CCc1ccc(OCCNC(=O)c2ccccc2I)cc1 [wact-12] + CNC(=O)O/N=C/C(C)(C)SC [aldicarb], the “aldicarb interaction hit call” value was inactive: 0. With O=C(Nc1ccc(-c2cn3ccccc3n2)cc1)c1ccccc1F [wact-629] + CNC(=O)O/N=C/C(C)(C)SC [aldicarb] the “aldicarb interaction hit call” value was inactive: 0. In the case of CC(NC(=O)c1nc(-c2cccs2)no1)c1ccccc1 (configuration not stated) [wact-615] + CNC(=O)O/N=C/C(C)(C)SC [aldicarb], the “aldicarb interaction hit call” value is reported as inactive: 0. For O=C(c1cc(COc2ccc3ncccc3c2)on1)N1CCC(c2ccncc2)CC1 [wact-262] + CNC(=O)O/N=C/C(C)(C)SC [aldicarb], the “aldicarb interaction hit call” value was inactive: 0. With Cc1ccc(-c2cnc(-c3ccncc3)o2)cc1 [wact-23] + CNC(=O)O/N=C/C(C)(C)SC [aldicarb] the “aldicarb interaction hit call” value was inactive: 0. COc1ccc(-c2n[nH]cc2CNCCc2ccc(Cl)cc2)cc1F [wact-245] + CNC(=O)O/N=C/C(C)(C)SC [aldicarb] was tested, and the “aldicarb interaction hit call” value was inactive: 0. Ic1cccc(-c2nnc(-c3ccccc3)o2)c1 [wact-51] + CNC(=O)O/N=C/C(C)(C)SC [aldicarb] was tested, and the “aldicarb interaction hit call” value was inactive: 0. For Cc1ccc(C(=O)O/N=C(\N)c2ccccc2)c(Cl)c1 [wact-484] + CNC(=O)O/N=C/C(C)(C)SC [aldicarb], the “aldicarb interaction hit call” value was inactive: 0. With COc1ccc(/C=C/C(=O)c2ccccc2O)cc1 [wact-588] + CNC(=O)O/N=C/C(C)(C)SC [aldicarb] the “aldicarb interaction hit call” value was inactive: 0. With COc1ccccc1CNC(=O)c1ccccc1I [wact-402] + CNC(=O)O/N=C/C(C)(C)SC [aldicarb] the “aldicarb interaction hit call” value was inactive: 0. CN(Cc1ccccc1)CC(O)COc1ccc(CNCc2ccc(Cl)cc2)cc1 (configuration not stated) [wact-283] + CNC(=O)O/N=C/C(C)(C)SC [aldicarb] was tested, and the “aldicarb interaction hit call” value was inactive: 0. For CC(Oc1ccc(Br)cc1)C(=O)O/N=C(\N)c1ccccn1 (configuration not stated) [wact-541] + CNC(=O)O/N=C/C(C)(C)SC [aldicarb], the “aldicarb interaction hit call” value was inactive: 0. Cc1ccc(-c2csc(NC(=O)c3ccco3)n2)cc1 [wact-620] + CNC(=O)O/N=C/C(C)(C)SC [aldicarb] was tested, and the “aldicarb interaction hit call” value was inactive: 0. Cc1cc(I)ccc1OCCCN(C)C.Cl [wact-144] + CNC(=O)O/N=C/C(C)(C)SC [aldicarb] was tested, and the “aldicarb interaction hit call” value was inactive: 0. In the case of C/C(=N\N=C(/C)c1cccs1)c1cccs1 [wact-18] + CNC(=O)O/N=C/C(C)(C)SC [aldicarb], the “aldicarb interaction hit call” value is reported as inactive: 0. Fc1ccc(CN2CCCN(Cc3nc(-c4ccc(C(F)(F)F)cc4)no3)CC2)cc1 [wact-313] + CNC(=O)O/N=C/C(C)(C)SC [aldicarb] was tested, and the “aldicarb interaction hit call” value was inactive: 0. With C#CCOc1ccc2ccccc2c1Br [wact-357] + CNC(=O)O/N=C/C(C)(C)SC [aldicarb] the “aldicarb interaction hit call” value was inactive: 0. For CC(CCn1cccn1)NC(=O)c1csc2nc(-c3ccc(C(F)(F)F)cc3)cn12 (configuration not stated) [wact-289] + CNC(=O)O/N=C/C(C)(C)SC [aldicarb], the “aldicarb interaction hit call” value was inactive: 0. In the case of O=C(NCCCCc1ccccc1)c1ccccc1F [wact-400] + CNC(=O)O/N=C/C(C)(C)SC [aldicarb], the “aldicarb interaction hit call” value is reported as inactive: 0. C#CCSc1nc2ccccc2n1C(=O)c1sc2ccccc2c1Cl [wact-206] + CNC(=O)O/N=C/C(C)(C)SC [aldicarb] was tested, and the “aldicarb interaction hit call” value was inactive: 0. For C#CCNS(=O)(=O)c1cccc(C(=O)Nc2ccc3ccccc3n2)c1 + CNC(=O)O/N=C/C(C)(C)SC [aldicarb], the “aldicarb interaction hit call” value was inactive: 0. CCCCNC(=S)NC(=O)c1ccccc1 [wact-486] + CNC(=O)O/N=C/C(C)(C)SC [aldicarb] was tested, and the “aldicarb interaction hit call” value was inactive: 0. In the case of Cc1cc(C)n2ncc(-c3cccc(Br)c3)c2n1 [wact-488] + CNC(=O)O/N=C/C(C)(C)SC [aldicarb], the “aldicarb interaction hit call” value is reported as inactive: 0. In the case of CCC(NC(=O)c1ccc2oc(Cc3ccc(Cl)cc3)nc2c1)c1ccncc1 (configuration not stated) [wact-322] + CNC(=O)O/N=C/C(C)(C)SC [aldicarb], the “aldicarb interaction hit call” value is reported as inactive: 0. In the case of Fc1ccc(N2CCN(C3CCC(c4ccccc4)CC3)CC2)cc1 (configuration not stated) [wact-49] + CNC(=O)O/N=C/C(C)(C)SC [aldicarb], the “aldicarb interaction hit call” value is reported as inactive: 0. For C#CCn1/c(=N/C(=O)c2ccc(OC(C)C)cc2)sc2cc(S(N)(=O)=O)ccc21 [wact-353] + CNC(=O)O/N=C/C(C)(C)SC [aldicarb], the “aldicarb interaction hit call” value was inactive: 0. For CN(Cc1nc(-c2ccc(C(F)(F)F)cc2)no1)CC1CCCN1C (configuration not stated) [wact-271] + CNC(=O)O/N=C/C(C)(C)SC [aldicarb], the “aldicarb interaction hit call” value was inactive: 0. With Brc1ccc(OCCCCCN2CCOCC2)cc1 [wact-410] + CNC(=O)O/N=C/C(C)(C)SC [aldicarb] the “aldicarb interaction hit call” value was inactive: 0. O=C(Nc1ccc(Cl)cc1)c1cccs1 [wact-380] + CNC(=O)O/N=C/C(C)(C)SC [aldicarb] was tested, and the “aldicarb interaction hit call” value was inactive: 0. In the case of COc1ccccc1C(=O)Nc1ccc(N2CCN(C(=O)c3ccc(C)cc3)CC2)cc1 [wact-545] + CNC(=O)O/N=C/C(C)(C)SC [aldicarb], the “aldicarb interaction hit call” value is reported as inactive: 0. In the case of CSc1ncnc2sc(-c3ccccc3)cc12 [wact-603] + CNC(=O)O/N=C/C(C)(C)SC [aldicarb], the “aldicarb interaction hit call” value is reported as inactive: 0. In the case of c1ccc2c(c1)CCC2NCc1c[nH]nc1-c1cc2ccccc2o1 (configuration not stated) [wact-266] + CNC(=O)O/N=C/C(C)(C)SC [aldicarb], the “aldicarb interaction hit call” value is reported as inactive: 0. For Fc1ccc(-c2noc(-c3cccs3)n2)cc1 [wact-632] + CNC(=O)O/N=C/C(C)(C)SC [aldicarb], the “aldicarb interaction hit call” value was active: 1.
